# Results: patent US11136362B2, “Peptide modulators of specific calcineurin protein-protein interactions” (The Board of Trustees of the Leland Stanford Junior …, priority 2016, dated 2021)
# Entries after “also recorded” stand apart in the source; their conditions may differ. Not every detail of the peptide structures is certain; ends, links or a residue may be inferred. Ends that are not written are not given here.
# How the values were obtained:
# Sprague-Dawley rats = type: in vivo, rat
# isolated rat hearts = test: Isolated heart model of ischemia-reperfusion injury
# [1] = tested on: Sprague-Dawley TRPV1 knockout rats; test: In vivo LAD ischemia-reperfusion injury model in TRPV1 knockout rats; details: compared to TRPV1 knockout rat controls
sequence,measurement,setting,value
YGRKKRRQRRRGGRAITILDTEKS [V1-cal],myocardial infarct size,"Sprague-Dawley rats; given just prior to reperfusion, n=6/group, control 61±2%",24±3%
same,infarct size reduction when compared to control,Sprague-Dawley rats; single intravenous bolus 5 minutes prior to reperfusion,61%
same,myocardial infarct size,"isolated rat hearts; compared to A5-cal, n=6/group",significantly reduced myocardial infarct size
same,creatine phosphokinase (CPK) release,"isolated rat hearts; first 30 minutes of reperfusion, versus A5-cal",reduced creatine phosphokinase (CPK) release
same,infarct size sparing effect in TRPV1 knockout rats,[1],not seen; also recorded: completely abrogated
